Test results from the supplement of paper PMC10849652.
The list shows a part of the results. Residues, ends and D or L forms follow the SMILES beside them. *: point of attachment. Cbz = O=C(OCc1ccccc1)*

Chains of the proteins cited; added tags and fusions are not shown. Lines headed by an entry give the natural chain unless they say otherwise; changes in a name come on top.
UniProt Q96KM6: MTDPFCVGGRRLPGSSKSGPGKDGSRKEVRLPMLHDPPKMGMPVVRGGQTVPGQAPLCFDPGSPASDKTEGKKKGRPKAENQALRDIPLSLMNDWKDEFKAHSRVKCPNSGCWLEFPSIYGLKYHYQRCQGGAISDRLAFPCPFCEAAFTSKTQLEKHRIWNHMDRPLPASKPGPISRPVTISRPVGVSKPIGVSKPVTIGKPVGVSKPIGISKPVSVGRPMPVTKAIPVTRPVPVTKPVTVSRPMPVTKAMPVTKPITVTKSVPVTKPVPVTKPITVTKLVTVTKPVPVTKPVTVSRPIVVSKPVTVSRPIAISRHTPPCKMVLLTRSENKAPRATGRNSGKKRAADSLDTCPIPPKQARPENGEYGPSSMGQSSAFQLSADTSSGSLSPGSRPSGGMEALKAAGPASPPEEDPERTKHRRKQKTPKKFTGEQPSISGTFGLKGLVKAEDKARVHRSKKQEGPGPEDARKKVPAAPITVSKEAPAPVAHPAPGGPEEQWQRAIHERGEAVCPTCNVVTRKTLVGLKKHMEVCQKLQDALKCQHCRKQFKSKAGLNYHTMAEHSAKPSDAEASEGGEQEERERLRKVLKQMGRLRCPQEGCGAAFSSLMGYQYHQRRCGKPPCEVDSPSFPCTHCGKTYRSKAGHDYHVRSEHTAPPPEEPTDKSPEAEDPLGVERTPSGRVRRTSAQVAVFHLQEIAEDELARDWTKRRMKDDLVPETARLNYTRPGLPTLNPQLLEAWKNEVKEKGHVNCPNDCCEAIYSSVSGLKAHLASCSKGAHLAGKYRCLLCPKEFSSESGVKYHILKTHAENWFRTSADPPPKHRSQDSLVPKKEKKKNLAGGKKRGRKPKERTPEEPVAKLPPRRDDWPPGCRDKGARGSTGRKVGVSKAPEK
UniProt Q8NAF0: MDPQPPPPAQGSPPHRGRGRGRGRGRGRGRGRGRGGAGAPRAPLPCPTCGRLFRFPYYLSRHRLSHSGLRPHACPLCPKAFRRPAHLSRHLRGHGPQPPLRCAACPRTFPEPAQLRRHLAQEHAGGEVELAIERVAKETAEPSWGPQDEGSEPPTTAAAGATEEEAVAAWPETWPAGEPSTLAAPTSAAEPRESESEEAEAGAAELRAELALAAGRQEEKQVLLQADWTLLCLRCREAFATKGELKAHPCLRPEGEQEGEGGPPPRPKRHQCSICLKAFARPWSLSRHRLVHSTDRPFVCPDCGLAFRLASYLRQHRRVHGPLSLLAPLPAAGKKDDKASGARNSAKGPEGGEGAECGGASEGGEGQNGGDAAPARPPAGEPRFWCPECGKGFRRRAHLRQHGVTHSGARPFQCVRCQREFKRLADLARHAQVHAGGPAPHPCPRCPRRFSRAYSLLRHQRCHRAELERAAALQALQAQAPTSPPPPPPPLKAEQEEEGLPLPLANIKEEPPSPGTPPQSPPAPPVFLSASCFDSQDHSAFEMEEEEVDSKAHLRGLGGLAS

molecular target: ZNF512B (UniProt Q96KM6); assay: log2 fold change, soluble protein after heating vs DMSO (PISA); higher = thermal stabilisation; K562 cells, 10 uM, 30 min; active = over 0.2 and 3.5 SD of the protein, either way, in both replicates (recomputed)
Method in brief: (§1)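 K562 cells (2×10^6 cells/mL) were treated with 10 μM compound for 30 min, and aliquots were heated for 3 min over 48°C-58°C. Pooled aliquots were extracted in PBS with 0.5% NP-40 at 4°C, and the supernatant after 21,000xg for 90 min was measured by TMTpro 16plex LC-MS/MS with channel sums equalised. Reported thermal stability, relative to control samples and from duplicates, is a log2 fold change.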

log2 fold change, inactive:
CCCc1cc(C)[nH]c(=O)c1CNC(=O)c1cc(-c2ccnc(N3CCN(C)CC3)c2)cc2c1cnn2C(C)C 0.037
Cn1cc(-c2ccc3nnc(C(F)(F)c4ccc5ncccc5c4)n3n2)cn1 -0.202
Oc1cc(-c2nc(-c3ccccc3)[nH]c2-c2ccncc2)ccc1Cl -0.016
Cc1ccc(NC(=O)c2cccc(N(C)C)c2)cc1NC(=O)c1ccc(O)cc1 0.044
CC(C)C[C@@H](C=O)NC(=O)[C@H](CC(C)C)NC(=O)[C@H](CC(C)C)NC(=O)OCc1ccccc1 (Cbz-Leu-Leu-Leu-aldehyde) 0.184
O=C(O)c1ccc2c(c1)nc(Nc1cccc(Cl)c1)c1ccncc12 [silmitasertib] 0.217
COc1cccc2cc(-c3nc([C@H]4CC[C@H](C(=O)O)CC4)n4ncnc(N)c34)[nH]c12 -0.231
CC(C)(C)Cn1c(N)nc2ccc(-c3[nH]c(C(C)(C)C)nc3-c3ccc(F)cc3)nc21 [ralimetinib] 0.266
Cc1ccc(C(=O)N(CCCN)[C@@H](c2nc3cc(Cl)ccc3c(=O)n2Cc2ccccc2)C(C)C)cc1 [ispinesib] -0.289
FC(F)(F)c1ccc(/C=C/c2nc(COc3ccc(CCCCn4ccnn4)cc3)co2)cc1 [mubritinib] -0.225
NC1(c2ccc(-c3nc4ccn5c(=O)[nH]nc5c4cc3-c3ccccc3)cc2)CCC1 0.215
COc1cc(Nc2ncc3c(n2)-c2ccc(Cl)cc2C(c2c(F)cccc2OC)=NC3)ccc1C(=O)O [alisertib] -0.119

molecular target: ZNF579 (UniProt Q8NAF0); assay: as above
Method in brief: as §1

log2 fold change, inactive:
C=CC(=O)N1CCC[C@@H](n2nc(-c3ccc(Oc4ccccc4)cc3)c3c(N)ncnc32)C1 [ibrutinib] -0.024
COc1cc(C(=O)O)ccc1NC(=O)[C@@H]1N[C@@H](CC(C)(C)C)[C@](C#N)(c2ccc(Cl)cc2F)[C@H]1c1cccc(Cl)c1F [idasanutlin] -0.116
CCCc1cc(C)[nH]c(=O)c1CNC(=O)c1cc(-c2ccnc(N3CCN(C)CC3)c2)cc2c1cnn2C(C)C 0.058
CC[C@H](C)n1cc(C)c2c(C(=O)NCc3c(C)cc(C)[nH]c3=O)cc(-c3ccc(N4CCNCC4)nc3)cc21 0.167
Cn1cc(-c2ccc3nnc(C(F)(F)c4ccc5ncccc5c4)n3n2)cn1 0.002
Cn1cc(-c2ccc3c(c2)CCN3C(=O)Cc2cccc(C(F)(F)F)c2)c2c(N)ncnc21 0.059
O=C1c2ccccc2-c2n[nH]c3cccc1c23 0.279
Oc1cc(-c2nc(-c3ccccc3)[nH]c2-c2ccncc2)ccc1Cl -0.025
Cc1ccc(NC(=O)c2cccc(N(C)C)c2)cc1NC(=O)c1ccc(O)cc1 -0.183
CC(C)C[C@@H](C=O)NC(=O)[C@H](CC(C)C)NC(=O)[C@H](CC(C)C)NC(=O)OCc1ccccc1 (Cbz-Leu-Leu-Leu-aldehyde) -0.271
CC(=O)c1cnc2ccc(-c3cc(Cl)c(O)c(Cl)c3)nc2c1N[C@H]1CC[C@H](CN(C)C)CC1 -0.187
O=C(O)c1ccc2c(c1)nc(Nc1cccc(Cl)c1)c1ccncc12 [silmitasertib] -0.016
O=C1NC(=NCc2cccs2)S/C1=C\c1ccc2ncccc2c1 -0.051
COc1cccc2cc(-c3nc([C@H]4CC[C@H](C(=O)O)CC4)n4ncnc(N)c34)[nH]c12 -0.078
CC(C)(C)Cn1c(N)nc2ccc(-c3[nH]c(C(C)(C)C)nc3-c3ccc(F)cc3)nc21 [ralimetinib] 0.032
Cc1ccc(C(=O)N(CCCN)[C@@H](c2nc3cc(Cl)ccc3c(=O)n2Cc2ccccc2)C(C)C)cc1 [ispinesib] 0.029
O=C1NC(=O)/C(=C\c2ccc3nccnc3c2)S1 -0.07
Cc1ncc(-c2ccnc(Nc3ccc(S(C)(=O)=O)cc3)n2)n1C(C)C -0.054
FC(F)(F)c1ccc(/C=C/c2nc(COc3ccc(CCCCn4ccnn4)cc3)co2)cc1 [mubritinib] 0.031
